This passage reports binding results from PMC8508526 (Cancers, 2021).

Chains of the proteins cited; added tags and fusions are not shown. Residues count along the entry.
UniProt P35441, residues 19-1170: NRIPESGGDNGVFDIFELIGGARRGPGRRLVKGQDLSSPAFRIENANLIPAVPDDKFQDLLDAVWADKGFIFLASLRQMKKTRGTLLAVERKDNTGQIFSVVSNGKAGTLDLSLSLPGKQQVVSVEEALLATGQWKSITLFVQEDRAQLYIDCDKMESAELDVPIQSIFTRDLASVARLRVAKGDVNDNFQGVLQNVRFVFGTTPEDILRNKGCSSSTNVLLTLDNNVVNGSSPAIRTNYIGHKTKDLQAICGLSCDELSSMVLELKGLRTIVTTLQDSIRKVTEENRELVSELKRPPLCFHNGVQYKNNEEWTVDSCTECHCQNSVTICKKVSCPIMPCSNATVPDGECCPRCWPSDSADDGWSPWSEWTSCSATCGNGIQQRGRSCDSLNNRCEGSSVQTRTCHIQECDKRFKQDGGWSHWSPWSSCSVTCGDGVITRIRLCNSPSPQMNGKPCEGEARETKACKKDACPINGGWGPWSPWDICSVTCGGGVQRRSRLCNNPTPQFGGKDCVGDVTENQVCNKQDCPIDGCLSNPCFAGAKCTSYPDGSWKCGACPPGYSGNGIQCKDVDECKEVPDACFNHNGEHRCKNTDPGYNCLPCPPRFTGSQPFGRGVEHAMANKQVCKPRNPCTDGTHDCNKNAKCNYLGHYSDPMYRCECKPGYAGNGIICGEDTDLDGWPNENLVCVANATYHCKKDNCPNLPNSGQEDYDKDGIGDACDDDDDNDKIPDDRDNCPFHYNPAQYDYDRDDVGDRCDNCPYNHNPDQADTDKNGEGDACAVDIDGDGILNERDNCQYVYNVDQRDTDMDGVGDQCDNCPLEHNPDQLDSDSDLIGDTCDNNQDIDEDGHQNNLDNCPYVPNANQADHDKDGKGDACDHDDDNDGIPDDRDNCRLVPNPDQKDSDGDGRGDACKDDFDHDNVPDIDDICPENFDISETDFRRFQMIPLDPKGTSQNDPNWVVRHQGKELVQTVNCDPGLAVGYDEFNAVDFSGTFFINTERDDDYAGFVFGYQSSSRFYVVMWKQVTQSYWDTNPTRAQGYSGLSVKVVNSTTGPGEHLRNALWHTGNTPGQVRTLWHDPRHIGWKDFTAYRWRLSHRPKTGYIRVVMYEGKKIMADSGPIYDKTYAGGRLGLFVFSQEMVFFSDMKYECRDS

Results are given in words; binding and its absence hold for the method and conditions named.

For this experiment, the target named is recombinant mouse thrombospondin-1 with a C-terminal 6His tag (mouse) (UniProt P35441). Briefly: SPR; Biacore T200; rmTSP-1 captured by its C-terminal 6His tag on anti-histidine antibody amine-coupled to a CM5 chip (2931 RU); peptides injected for 120 s at 30 uL/min, 25 °C; running buffer 10 mM HEPES, 0.15 M NaCl, 0.05% surfactant P20, 5 mM CaCl2, pH 7.4; single injections at 1 mM; single-cycle kinetics at 15.625-250 uM; contact-time experiment (30-600 s) at 500 uM TAX2; two-state reaction model, apparent KD; both purified. In general terms: SPR reads the build-up and loss of mass on a sensor chip optically.

B1: control scrambled peptide (peptide)
peptide: LSVDESKAQGIL
As for B1, the binding result was “no binding (tested: 1 mM)”.
